Some of the results follow.

The chains behind the UniProt entries cited, without tags or fusion partners. Where a name states a change or a piece, a line headed by the entry shows the natural chain unless it says otherwise.
UniProt P29401: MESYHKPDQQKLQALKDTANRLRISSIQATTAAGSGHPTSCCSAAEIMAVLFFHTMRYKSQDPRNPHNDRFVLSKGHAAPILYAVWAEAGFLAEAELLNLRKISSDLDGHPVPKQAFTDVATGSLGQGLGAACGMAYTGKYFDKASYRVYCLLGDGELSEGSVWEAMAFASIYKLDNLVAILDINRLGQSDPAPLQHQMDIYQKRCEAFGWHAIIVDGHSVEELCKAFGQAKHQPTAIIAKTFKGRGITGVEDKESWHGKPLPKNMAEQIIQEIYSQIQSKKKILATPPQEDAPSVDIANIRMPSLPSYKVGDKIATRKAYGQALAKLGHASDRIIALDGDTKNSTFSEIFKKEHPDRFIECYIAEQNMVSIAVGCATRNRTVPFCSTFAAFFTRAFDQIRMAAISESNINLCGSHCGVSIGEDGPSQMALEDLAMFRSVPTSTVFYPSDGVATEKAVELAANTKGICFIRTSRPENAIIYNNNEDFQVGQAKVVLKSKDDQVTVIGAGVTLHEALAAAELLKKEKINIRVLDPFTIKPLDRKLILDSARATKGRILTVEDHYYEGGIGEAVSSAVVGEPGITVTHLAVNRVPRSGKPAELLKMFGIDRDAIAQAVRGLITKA
UniProt P04183: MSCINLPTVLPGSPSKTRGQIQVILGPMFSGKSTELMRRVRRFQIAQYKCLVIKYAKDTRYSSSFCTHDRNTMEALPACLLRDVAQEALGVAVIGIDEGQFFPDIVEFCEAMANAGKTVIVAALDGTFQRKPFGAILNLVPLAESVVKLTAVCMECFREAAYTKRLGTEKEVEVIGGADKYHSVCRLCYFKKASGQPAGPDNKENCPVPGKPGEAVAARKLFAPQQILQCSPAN
UniProt Q8WVM0: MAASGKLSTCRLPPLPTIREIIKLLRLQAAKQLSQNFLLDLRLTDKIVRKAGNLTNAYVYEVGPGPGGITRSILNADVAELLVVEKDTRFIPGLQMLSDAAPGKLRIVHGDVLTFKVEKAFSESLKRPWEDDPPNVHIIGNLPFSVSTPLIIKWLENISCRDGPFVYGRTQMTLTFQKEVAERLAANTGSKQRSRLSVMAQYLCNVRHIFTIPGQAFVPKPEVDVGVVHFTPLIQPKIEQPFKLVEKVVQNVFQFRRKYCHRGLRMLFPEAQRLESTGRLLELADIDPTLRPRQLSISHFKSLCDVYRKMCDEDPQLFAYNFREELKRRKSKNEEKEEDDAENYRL
UniProt Q96J01: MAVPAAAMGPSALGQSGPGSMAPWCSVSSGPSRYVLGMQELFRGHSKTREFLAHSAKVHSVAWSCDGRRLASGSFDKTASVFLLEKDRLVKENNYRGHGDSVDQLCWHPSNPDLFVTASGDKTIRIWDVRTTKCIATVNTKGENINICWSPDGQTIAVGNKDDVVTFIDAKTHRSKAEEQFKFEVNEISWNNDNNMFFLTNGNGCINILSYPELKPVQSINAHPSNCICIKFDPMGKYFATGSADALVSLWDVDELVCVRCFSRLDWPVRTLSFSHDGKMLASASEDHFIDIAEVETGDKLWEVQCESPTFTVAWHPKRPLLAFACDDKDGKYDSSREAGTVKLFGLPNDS
UniProt O60220: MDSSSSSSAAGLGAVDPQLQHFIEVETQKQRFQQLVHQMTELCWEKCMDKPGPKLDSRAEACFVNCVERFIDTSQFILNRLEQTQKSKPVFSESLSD
UniProt Q9Y4R8, whole entry, looked up: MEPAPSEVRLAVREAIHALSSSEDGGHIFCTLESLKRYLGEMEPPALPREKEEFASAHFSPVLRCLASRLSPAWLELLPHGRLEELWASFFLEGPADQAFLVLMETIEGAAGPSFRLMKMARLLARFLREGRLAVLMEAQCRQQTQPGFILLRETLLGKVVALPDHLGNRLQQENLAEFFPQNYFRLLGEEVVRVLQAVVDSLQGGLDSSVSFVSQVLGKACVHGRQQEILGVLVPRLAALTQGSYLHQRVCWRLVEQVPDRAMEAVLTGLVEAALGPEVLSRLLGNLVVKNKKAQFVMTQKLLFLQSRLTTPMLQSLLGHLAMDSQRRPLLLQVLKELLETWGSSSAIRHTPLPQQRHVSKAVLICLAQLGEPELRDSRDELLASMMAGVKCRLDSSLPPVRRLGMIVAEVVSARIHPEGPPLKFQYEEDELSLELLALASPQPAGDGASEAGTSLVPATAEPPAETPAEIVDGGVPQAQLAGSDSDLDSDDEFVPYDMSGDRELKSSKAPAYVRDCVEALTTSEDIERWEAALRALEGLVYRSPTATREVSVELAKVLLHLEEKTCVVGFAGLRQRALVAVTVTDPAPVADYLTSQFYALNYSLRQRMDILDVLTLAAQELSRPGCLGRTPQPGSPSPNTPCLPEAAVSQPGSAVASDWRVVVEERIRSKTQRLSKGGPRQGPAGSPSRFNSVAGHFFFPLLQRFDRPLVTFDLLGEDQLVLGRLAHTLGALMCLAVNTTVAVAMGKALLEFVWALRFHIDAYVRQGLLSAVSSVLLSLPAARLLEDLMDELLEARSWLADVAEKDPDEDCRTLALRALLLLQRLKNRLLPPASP
UniProt P17987, whole entry, looked up: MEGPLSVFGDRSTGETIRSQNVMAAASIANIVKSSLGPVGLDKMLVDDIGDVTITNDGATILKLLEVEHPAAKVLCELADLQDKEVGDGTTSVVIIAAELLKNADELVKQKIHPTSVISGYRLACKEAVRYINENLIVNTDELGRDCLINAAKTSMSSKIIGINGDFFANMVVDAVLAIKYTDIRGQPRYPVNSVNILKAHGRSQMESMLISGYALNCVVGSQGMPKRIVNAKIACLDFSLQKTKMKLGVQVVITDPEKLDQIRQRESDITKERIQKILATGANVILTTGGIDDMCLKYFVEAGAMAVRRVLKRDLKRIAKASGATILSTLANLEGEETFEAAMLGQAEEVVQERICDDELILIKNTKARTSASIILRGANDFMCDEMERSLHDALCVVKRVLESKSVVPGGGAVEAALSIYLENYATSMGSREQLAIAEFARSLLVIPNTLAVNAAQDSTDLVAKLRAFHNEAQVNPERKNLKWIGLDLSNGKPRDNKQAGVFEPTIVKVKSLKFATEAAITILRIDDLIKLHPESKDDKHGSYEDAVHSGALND
UniProt P52888, whole entry, looked up: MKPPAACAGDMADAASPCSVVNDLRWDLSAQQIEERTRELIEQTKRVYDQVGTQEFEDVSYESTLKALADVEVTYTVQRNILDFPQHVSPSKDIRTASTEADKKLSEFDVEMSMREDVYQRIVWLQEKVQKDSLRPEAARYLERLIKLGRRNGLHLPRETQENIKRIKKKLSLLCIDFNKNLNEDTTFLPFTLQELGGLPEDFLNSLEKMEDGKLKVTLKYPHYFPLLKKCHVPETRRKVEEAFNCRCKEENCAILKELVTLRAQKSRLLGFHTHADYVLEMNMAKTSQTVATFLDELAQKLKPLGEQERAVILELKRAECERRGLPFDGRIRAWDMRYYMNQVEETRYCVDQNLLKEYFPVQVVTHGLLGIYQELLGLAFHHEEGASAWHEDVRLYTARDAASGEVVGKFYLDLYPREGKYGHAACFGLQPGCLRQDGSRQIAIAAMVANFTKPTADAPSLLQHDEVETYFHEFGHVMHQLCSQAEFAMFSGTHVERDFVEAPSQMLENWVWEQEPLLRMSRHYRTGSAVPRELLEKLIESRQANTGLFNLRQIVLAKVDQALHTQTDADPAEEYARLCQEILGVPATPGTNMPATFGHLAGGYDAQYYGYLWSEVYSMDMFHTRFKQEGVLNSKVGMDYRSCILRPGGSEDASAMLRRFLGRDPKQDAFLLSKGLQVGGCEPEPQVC
UniProt Q9UGI8: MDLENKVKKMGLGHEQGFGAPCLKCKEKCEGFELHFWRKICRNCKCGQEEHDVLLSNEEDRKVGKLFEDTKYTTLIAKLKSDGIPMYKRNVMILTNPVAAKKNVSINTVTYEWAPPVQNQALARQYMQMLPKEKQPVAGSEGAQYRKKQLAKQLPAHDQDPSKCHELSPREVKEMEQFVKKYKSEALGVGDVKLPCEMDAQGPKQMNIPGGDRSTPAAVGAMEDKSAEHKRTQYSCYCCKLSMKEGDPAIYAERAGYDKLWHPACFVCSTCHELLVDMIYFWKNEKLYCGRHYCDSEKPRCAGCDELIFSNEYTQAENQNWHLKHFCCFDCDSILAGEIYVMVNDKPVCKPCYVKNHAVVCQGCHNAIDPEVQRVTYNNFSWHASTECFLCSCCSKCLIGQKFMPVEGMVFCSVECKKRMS
UniProt P07996: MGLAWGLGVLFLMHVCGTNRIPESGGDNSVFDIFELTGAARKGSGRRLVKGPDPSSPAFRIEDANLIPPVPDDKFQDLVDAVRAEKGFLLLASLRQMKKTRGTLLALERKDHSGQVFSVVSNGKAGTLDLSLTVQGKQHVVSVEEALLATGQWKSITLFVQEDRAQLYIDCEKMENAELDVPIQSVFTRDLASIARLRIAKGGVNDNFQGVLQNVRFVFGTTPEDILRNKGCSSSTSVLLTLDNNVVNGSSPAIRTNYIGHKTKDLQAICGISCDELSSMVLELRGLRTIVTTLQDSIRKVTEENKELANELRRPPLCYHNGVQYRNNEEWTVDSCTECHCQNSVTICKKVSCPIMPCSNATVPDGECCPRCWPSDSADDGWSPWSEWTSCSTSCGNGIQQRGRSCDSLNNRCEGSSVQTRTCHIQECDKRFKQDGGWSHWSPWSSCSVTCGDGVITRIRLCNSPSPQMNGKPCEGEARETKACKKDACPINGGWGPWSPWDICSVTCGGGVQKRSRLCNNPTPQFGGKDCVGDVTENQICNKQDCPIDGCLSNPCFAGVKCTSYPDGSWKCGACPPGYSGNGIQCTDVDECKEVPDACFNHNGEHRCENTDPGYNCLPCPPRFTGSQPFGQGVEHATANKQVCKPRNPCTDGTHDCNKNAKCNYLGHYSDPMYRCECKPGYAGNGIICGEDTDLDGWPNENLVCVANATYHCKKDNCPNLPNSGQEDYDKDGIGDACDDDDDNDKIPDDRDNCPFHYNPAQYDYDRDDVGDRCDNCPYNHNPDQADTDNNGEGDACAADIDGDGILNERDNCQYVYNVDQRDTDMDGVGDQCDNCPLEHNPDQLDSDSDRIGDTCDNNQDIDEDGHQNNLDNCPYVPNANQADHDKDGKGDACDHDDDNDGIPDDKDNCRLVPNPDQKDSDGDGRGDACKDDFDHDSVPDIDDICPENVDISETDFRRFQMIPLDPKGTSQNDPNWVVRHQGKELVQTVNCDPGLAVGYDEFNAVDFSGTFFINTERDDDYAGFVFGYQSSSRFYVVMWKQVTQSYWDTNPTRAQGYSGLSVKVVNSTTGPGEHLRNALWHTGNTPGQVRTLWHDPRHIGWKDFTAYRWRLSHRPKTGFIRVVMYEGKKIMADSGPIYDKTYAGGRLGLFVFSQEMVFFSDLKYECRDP
UniProt Q8NHU6: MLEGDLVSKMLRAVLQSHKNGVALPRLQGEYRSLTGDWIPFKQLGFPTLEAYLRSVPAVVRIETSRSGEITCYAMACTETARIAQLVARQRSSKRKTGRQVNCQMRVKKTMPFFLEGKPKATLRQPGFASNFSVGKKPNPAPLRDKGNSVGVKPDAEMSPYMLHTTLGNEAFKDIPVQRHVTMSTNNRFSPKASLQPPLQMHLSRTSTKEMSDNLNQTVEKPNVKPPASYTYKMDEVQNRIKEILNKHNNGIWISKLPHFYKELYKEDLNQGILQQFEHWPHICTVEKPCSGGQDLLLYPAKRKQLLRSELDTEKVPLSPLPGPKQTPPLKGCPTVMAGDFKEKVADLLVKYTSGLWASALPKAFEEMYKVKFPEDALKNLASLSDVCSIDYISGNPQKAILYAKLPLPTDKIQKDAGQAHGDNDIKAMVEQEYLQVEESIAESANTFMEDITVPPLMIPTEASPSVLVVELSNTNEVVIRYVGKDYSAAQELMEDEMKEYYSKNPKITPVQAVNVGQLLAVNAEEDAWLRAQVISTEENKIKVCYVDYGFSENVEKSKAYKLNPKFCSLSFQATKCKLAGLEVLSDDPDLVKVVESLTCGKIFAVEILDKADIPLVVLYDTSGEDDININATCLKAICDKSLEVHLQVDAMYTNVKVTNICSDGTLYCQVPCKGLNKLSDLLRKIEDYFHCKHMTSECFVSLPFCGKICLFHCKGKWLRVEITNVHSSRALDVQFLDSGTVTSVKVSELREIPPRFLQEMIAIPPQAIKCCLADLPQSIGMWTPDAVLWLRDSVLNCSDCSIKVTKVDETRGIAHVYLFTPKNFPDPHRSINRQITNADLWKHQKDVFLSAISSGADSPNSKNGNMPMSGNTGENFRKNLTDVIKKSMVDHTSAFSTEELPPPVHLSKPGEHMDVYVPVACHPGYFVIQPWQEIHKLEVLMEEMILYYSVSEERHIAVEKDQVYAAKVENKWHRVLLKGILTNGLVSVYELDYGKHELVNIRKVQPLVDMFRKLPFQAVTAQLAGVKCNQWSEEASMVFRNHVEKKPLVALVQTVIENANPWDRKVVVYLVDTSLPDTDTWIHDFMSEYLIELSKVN

The values that follow come from the supplement of paper PMC12067093, “Discovery and optimisation of a covalent ligand for TRIM25 and its application to targeted protein ubiquitination” (Chemical Science, 2025).
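Also: competitive profiling in live THP-1 cells: cysteine peptides tagged with an iodoacetamide desthiobiotin (IA-DTB) probe, intensity after compound treatment relative to DMSO-treated cells.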

Compound in the assay: Cc1cc(ccc1-c1ccccc1)C(=O)N1CCCN(CC1)C(=O)CCl [compound 10]
As to the kind of experiment: probe-labelled cysteine peptide fold change vs DMSO (competition) (log2 fold change); higher = less target engagement (more negative = stronger competition). The settings on record: 10 µM; THP-1; incubation time: 4 h.
“TKT_P29401_133_QAFTDVATGSLGQGLGAACGMAYTGK (UniProt P29401)”: the “probe-labelled cysteine peptide fold change” value is -0.0496.
For “TK1_P04183_66_YSSSFCTHDR (UniProt P04183)” the value was -0.00427; for “TFB1M_Q8WVM0_160_WLENISCR (UniProt Q8WVM0)”, -0.139; for “THOC6_Q86W42_214_EVQTIEVYKHEECSRPHNGR (UniProt Q86W42)”, -0.0668.
For “TIA1_P31483_49_MIMDTAGNDPYCFVEFHEHR (UniProt P31483)” the value was 0.11; for “TKT_P29401_206_CEAFGWHAIIVDGHSVEELCK (UniProt P29401)”, 0.148; for “TLDC1_Q6P9B6_310_HVFGGFASCSWEVKPQFQGDNR (UniProt Q6P9B6)”, 0.191.
For “TGFB1I1_O43294_393_ECFAPFSGGSFFEHEGRPLCENHFHAR (UniProt O43294)” the value was 0.0627; for “TLN1_Q9Y490_1023_ASVPTIQDQASAMQLSQCAK (UniProt Q9Y490)”, 0.2.
For the target “TLN1_Q9Y490_1661_DKAPGQLECETAIAALNSCLR (UniProt Q9Y490)”, the “probe-labelled cysteine peptide fold change” value is -0.0165.
The same measure for “THOC3_Q96J01_106_GHGDSVDQLCWHPSNPDLFVTASGDK (UniProt Q96J01)”: 0.0637; for “TIMM8A_O60220_62_AEACFVNCVER (UniProt O60220)”: -0.122; for “THAP12_O43422_644_SDLPNPDTLSAELHCWR (UniProt O43422)”: 0.113.
For “TEP1_Q99973_692_TVLVYLTDANADRLCPK (UniProt Q99973)” the value was -0.328.
The same measure for “TEX30_Q5JUR7_129_GLICISYPLHHPK (UniProt Q5JUR7)”: 0.0568; for “TELO2_Q9Y4R8_30_EAIHALSSSEDGGHIFCTLESLKR (UniProt Q9Y4R8)”: -0.113; for “TCP1_P17987_296_ILATGANVILTTGGIDDMCLK (UniProt P17987)”: 0.17.
On to “TEP1_Q99973_2000_ECSLQSLWLLSR (UniProt Q99973)”, for which the “probe-labelled cysteine peptide fold change” value was -0.0267.
For “THOP1_P52888_321_RAECER (UniProt P52888)” the value was 0.105.
The same measure for “TGFBRAP1_Q8WUH2_700_ALHILVHELQDFAAAEDYCLWCSEGRDPPHR (UniProt Q8WUH2)”: 0.128; for “TES_Q9UGI8_196_LPCEMDAQGPK (UniProt Q9UGI8)”: -0.148.
The same measure for “THBS1_P07996_754_IPDDRDNCPFHYNPAQYDYDRDDVGDR (UniProt P07996)”: -0.513.
As to “TFCP2_Q12800_453_IAQLFSISPCQISQIYK (UniProt Q12800)”, the “probe-labelled cysteine peptide fold change” value is 0.141.
With “TCP1_P17987_357_ICDDELILIK (UniProt P17987)”, the “probe-labelled cysteine peptide fold change” value is -0.172.
The same measure for “THBS1_P07996_406_SCDSLNNR (UniProt P07996)”: -0.464; for “TLE3_Q04726_490_QINTLSHGEVVCAVTISNPTR (UniProt Q04726)”: 0.157.
For “THOP1_P52888_427_YGHAACFGLQPGCLR (UniProt P52888)” the value was 0.0275; for “TEP1_Q99973_2105_TPVLIHSFPACHR (UniProt Q99973)”, -0.0307; for TES_Q9UGI8_164_CHELSPR (UniProt Q9UGI8), -0.162.
In the case of “TES_Q9UGI8_29_CEGFELHFWR (UniProt Q9UGI8)”, the “probe-labelled cysteine peptide fold change” value is -0.0799.
As to “TKT_P29401_362+376_EHPDRFIECYIAEQNMVSIAVGCATR (UniProt P29401)”, the “probe-labelled cysteine peptide fold change” value is -0.0131.
For “TDRD7_Q8NHU6_103_QVNCQMR (UniProt Q8NHU6)” the value was -0.119; for “THOC3_Q96J01_306_LWEVQCESPTFTVAWHPK (UniProt Q96J01)”, -0.0934.
Take “TGFBI_Q15582_49_QHGPNVCAVQK (UniProt Q15582)”: the “probe-labelled cysteine peptide fold change” value is -0.523.
The same measure for “TELO2_Q9Y4R8_813_SWLADVAEKDPDEDCR (UniProt Q9Y4R8)”: 0.0272; for “TES_Q9UGI8_22_MGLGHEQGFGAPCLK (UniProt Q9UGI8)”: -0.0252; for “THOC2_Q8NI27_804_RVPSIDVLCNEFHTPHDAAFFLSR (UniProt Q8NI27)”: 0.0449.
For “TDRD7_Q8NHU6_333_GCPTVMAGDFK (UniProt Q8NHU6)” the value was -0.179.
The same measure for “THADA_Q6YHU6_926_VHCITGALQK (UniProt Q6YHU6)”: -0.0589.
